Test results: US5695952A, “Method for producing [Leu^13 ]motilin” (Kyowa Hakko Kogyo Co., Ltd., priority 1986, dated 1997)
Part of at least one peptide drawing is inferred or uncertain, most often the ends. Ends that are not written are not given here.

Experiments:
[1] = Loss of motilin activity caused by oxidation; settings: replacement of the 13th amino acid Met with Leu
duodenum specimens = assay: Intestine-contracting activity on isolated rabbit duodenum (Magnus bath); type: cell-based

## FVPIFTYGELQRLQEKERNKGQ [[Leu^13]motilin]
[1]
  loss of activity caused by oxidation: does not suffer the loss of activity caused by oxidation
Duodenum specimens; general statement
  activity compared with motilin: comparable in activity to naturally occurring motilin
Duodenum specimens; rabbit duodenum, cumulative addition 1×10^-9 to 3×10^-7 g/ml, 10^-5 g/ml acetylcholine taken as 100%, FIG. 17
  intestine-contracting activity (contractile tension as percentage of acetylcholine response): comparable in intestine-contracting activity to naturally occurring porcine motilin
